# PubChem BioAssay AID540256 (National Center for Advancing Translational Sciences (NCATS), 2011)
# Several values for one entry are separate records, joined by “and”; a condition that tells them apart may be missing. Identical values can stand only once. Among all 300,000 compounds or so, about 3,700 (1.2%) were called active. The inconclusive results got no clear call from the source; some entries with a clear call stand among them for comparison. Calls come from the whole dose curve; tested in HEK293 cells. Where the call is inconclusive, the potency comes from a doubtful curve fit.
# Experiment: qHTS for Inhibitors of binding or entry into cells for Lassa Virus; note: nearly all actives have a fitted effect of over 50% in size
# Conditions: Lassa virus pseudotype entry inhibition, cell reporter; activity change, negative = inhibition: at 37.9 µM (top of the series) unless noted
# % is set by controls: 0 for no effect and ±100 for the full control effect; potency is the fitted concentration of half-maximal effect.
SMILES,Potency,"activity change, negative = inhibition"
CC(C)(C)c1cc2cccnc2n1Cc1cccc(Cl)c1,"inconclusive: 18.3 µM [inhibitor, single point]",–
CCC(C)NC(=S)NNC(=O)c1ccncc1 (stereo not drawn),"inconclusive: 12.6 µM [activator, single point]",–
CCOC(=O)c1c(C)[nH]c(C)c1C(=O)COC(=O)C1CC(=O)N(CCc2ccccc2)C1 (stereo not drawn),–,inactive: 4.36%
Oc1[nH]c2ccccc2c1C=Nc1ccc2c(c1)OCCO2,"inconclusive: 25.1 µM [inhibitor, single point]",–
COc1ccc(N2CCN(C(=O)c3ccc(CNS(=O)(=O)c4ccc(C)cc4)cc3)CC2)cc1,"inconclusive: 3.55 µM [inhibitor, full curve]",–
Cc1cc(C)cc(N(CC(=O)NCCSCc2ccco2)S(C)(=O)=O)c1,"inconclusive: 22.4 µM [inhibitor, single point]",–
COc1ccc(C(=O)NCC(c2ccco2)N2CCc3ccccc32)c(OC)c1 (stereo not drawn),"inconclusive: 15.8 µM [inhibitor, partial curve, poor fit]",–
CCCNC(=O)c1cnn2c(C)c(Cc3c(C)cc(C)cc3C)c(C)nc12,"inconclusive: 2.82 µM [inhibitor, partial curve, poor fit]",–
O=C(C1CCN(S(=O)(=O)c2cnc[nH]2)CC1)N1CCN(Cc2ccc3c(c2)OCO3)CC1,"inconclusive: 1.41 µM [inhibitor, partial curve, poor fit]",–
CCCCOC(=O)c1ccc(NC(=O)c2c(OC)cccc2OC)cc1,"inconclusive: 23.1 µM [inhibitor, partial curve, poor fit]",–
O=C(Nc1ccc(Oc2ccc(NC(=O)Nc3ccc([N+](=O)[O-])cc3)cc2)cc1)Nc1ccc([N+](=O)[O-])cc1,–,inactive: -24.5%
Oc1c(C=C2N=c3ccccc3=N2)sc(=S)n1-c1ccc(F)cc1,"inactive and inconclusive: 22.4 µM [inhibitor, single point]",–
Cc1nn(-c2ccccc2)c(N)c1N=Nc1ccccc1,"inconclusive: 7.94 µM [inhibitor, partial curve, poor fit]",–
CC(C)Cn1cc(Cl)c(=O)n(CC(C)C)c1=O,–,inactive: 9.94% [at 46.1 µM]
COc1cc(S(=O)(=O)N(Cc2ccc(C)cc2)C2CCCCC2)ccc1-n1cnnn1,"inconclusive: 23.1 µM [inhibitor, single point]",–
Cc1cc(-c2ccc(C)c(S(=O)(=O)N3CCC(C)CC3)c2)on1,"inconclusive: 7.94 µM [inhibitor, partial curve, poor fit]",–
CC(C)Cn1cc(NC(=O)Nc2cccc(C(F)(F)F)c2)c2ccccc2c1=O,–,inactive: -26.7% [at 46.1 µM]
COC(=O)c1ccc(Oc2ccc3nncn3n2)cc1,"inconclusive: 29.1 µM [activator, single point]",–
COC(=O)CSc1nc(NC(C)(C)C)nc(N(C)C)n1,–,inactive: -21.7%
CC(C)(C)NC(=O)C(c1ccco1)N(Cc1ccc2c(c1)OCO2)C(=O)c1snc(C(N)=O)c1N (stereo not drawn),"inconclusive: 0.891 µM [inhibitor, full curve, poor fit]",–
Cc1ccccc1CC(=O)N(CCN(C)C)CC1CCCN(Cc2ccccc2F)C1 (stereo not drawn),"inconclusive: 35.5 µM [inhibitor, single point]",–
Cc1cc(NC(=O)c2cccc(C)c2[N+](=O)[O-])no1,–,inactive: 1.58%

SMILES,Potency,"activity change, negative = inhibition"
O=S1(=O)N[C@@H](Cc2ccccc2)COc2cccc(N3CCCCC3)c21,–,inactive: 4.23% [at 46.1 µM]
Oc1ccc(Br)cc1-c1cc(-c2ccc(Cl)cc2)n[nH]1,–,inactive: -4.53%
Cc1ccc(SCCNC(=S)Nc2cc(C)ccc2C)cc1,"inconclusive: 2 µM [inhibitor, partial curve, poor fit]",–
CNC(=O)c1cc2cc(Cl)cc(OC)c2oc1=O,"inconclusive: 1.26 µM [inhibitor, single point]",–
O=C(NC1CCN(C(=O)NCc2ccccc2)CC1)c1cccc(F)c1,"inconclusive: 6.31 µM [inhibitor, single point]",–
COc1ccc(C2c3[nH]c4ccccc4c3CCN2CCCn2cccn2)c(C)c1C (stereo not drawn),–,inactive: -21.4%
CCn1c(C)nc2cc(C(=O)N/N=C/c3cccc(OC)c3O)ccc21,"inconclusive: 31.6 µM [inhibitor, single point]",–
CCOc1cc(C(=O)OCc2ccc([N+](=O)[O-])cc2)ccc1OCC(=O)N1CCOCC1,"inconclusive: 0.355 µM [inhibitor, partial curve, poor fit]",–
C[C@]12CCC3C(CC[C@H]4CCCC[C@]34C)C1CC[C@@]2(O)CNCCO (stereo partly drawn),"inconclusive: 5.62 µM [activator, full curve, poor fit]",–
O=C(NCc1cccs1)c1noc2c1CCCC2,–,inactive: -3.71%
CCCn1c(C)cc(C(=O)CN2C(=O)c3cccc(N)c3C2=O)c1C,"inconclusive: 10 µM [activator, partial curve]",–
CC(=O)Oc1ccc(C(=O)Cc2ccc3ccccc3n2)c(O)c1C,–,inactive: 13.4%
CCCCCOC(=O)C1C(c2ccccc2)C(C(=O)O)C1c1ccccc1 (stereo not drawn),–,inactive: -23.6%
COc1ccc(N2C(=O)c3ccc(NC(C)=O)cc3C2=O)cc1,–,inactive: 5.2%
CC1=CC(C)C2COC(c3ccc[n+](C)c3)C1C2C (stereo not drawn),–,inactive: 2.98%
Cc1ccc(C2=Nc3ccccc3N(CC(=O)Nc3ccccc3F)C(=O)C2)cc1C,"inconclusive: 35.5 µM [inhibitor, single point]",–
O=C(COC(=O)c1ccccc1)Nc1ccc(Cl)cn1,"inconclusive: 1.58 µM [activator, partial curve, poor fit]",–
COc1cccc(NC(=O)Cn2cc(C(=O)c3ccccc3)c3ccccc32)c1,"inconclusive: 35.5 µM [inhibitor, single point]",–
Cc1nc2ccccn2c1C(=O)N/N=C/c1ccc2c(c1)OCO2,"inconclusive: 7.08 µM [inhibitor, full curve, poor fit]",–
CC1(C)CC(CCNC(=O)c2ccco2)CC(C)(C)N1,–,inactive: 6.52%
CCOC(=O)c1c(C)n(S(=O)(=O)c2ccc(C)cc2C)c2ccc(NS(=O)(=O)c3ccc(C)cc3C)cc12,"inconclusive: 7.94 µM [inhibitor, partial curve, poor fit]",–
